The target of this assay is GST-Cpne4 (UniProt Q8BLR2). Kind of assay: affinity purification with mass spectrometry.

By UniProt entry, the sequences of proteins in these tests, tags left out.
UniProt Q8BLR2, whole entry: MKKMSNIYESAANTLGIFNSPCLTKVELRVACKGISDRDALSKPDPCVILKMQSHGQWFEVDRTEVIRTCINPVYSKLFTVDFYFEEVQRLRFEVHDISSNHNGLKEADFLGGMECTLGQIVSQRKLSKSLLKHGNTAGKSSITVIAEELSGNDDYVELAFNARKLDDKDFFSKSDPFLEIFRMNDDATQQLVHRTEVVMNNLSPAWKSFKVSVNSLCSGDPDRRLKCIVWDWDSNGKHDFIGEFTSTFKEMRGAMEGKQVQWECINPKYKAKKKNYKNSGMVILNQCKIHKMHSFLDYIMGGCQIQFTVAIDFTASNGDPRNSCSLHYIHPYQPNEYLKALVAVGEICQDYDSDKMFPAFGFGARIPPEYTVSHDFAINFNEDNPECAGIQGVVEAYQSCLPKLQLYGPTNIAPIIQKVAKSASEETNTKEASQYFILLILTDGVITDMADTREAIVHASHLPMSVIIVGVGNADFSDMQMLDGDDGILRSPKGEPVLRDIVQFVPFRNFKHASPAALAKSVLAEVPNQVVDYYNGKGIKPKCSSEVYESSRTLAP

These are yes or no findings as the source states them, for the method shown. Binding seen in cells or lysates may run through a third protein. These calls come from enrichment with a bait or labelling near it, and not all partners need be listed.

With “Stx1b (Syntaxin 1b) (from UniProt P61264 1-288)”, the binding result is on record as “binds”.

Values taken from doi:10.1101/2021.08.09.455730.
